PubChem BioAssay AID1259424, University of Nebraska Medical Center – 2018
The whole screen tested about 14,000 reagents; below is an unselected part. 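Higher correlation or smaller distance means closer resemblance to KSR1 loss; control wells, including KSR1 knockdowns, recur on many plates.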 Not all columns of the deposit are shown. Not given: the time to read-out.

Aim: 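Find knockdowns that reproduce the expression shifts seen after KSR1 loss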 (primary screen)
Cells: human HCT116 colon cancer cells
Reagent: siRNA pool against human genes, 50 nM
Read-out: 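Six signature mRNAs by branched-DNA multiplex assay, scaled to two housekeeping genes and non-targeting median, log2; matched to mean KSR1 knockdown profile by Pearson correlation and euclidean distance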
Scale: mean correlation with KSR1 profile and KSR1 correlation: higher = expression change more like KSR1 knockdown; mean distance from KSR1 profile: higher = expression change less like KSR1 knockdown

no.	gene	mean correlation with KSR1 profile	mean distance from KSR1 profile	KSR1 correlation, replicate 1
1	CTRC (chymotrypsin C)	-0.549	1.75	-0.598
2	ARHGAP15 (Rho GTPase activating protein 15)	0.0289	1.43	-0.00284
3	GOLM1 (golgi membrane protein 1)	-0.357	6.13	-0.348
4	RAP2B (RAP2B, member of RAS oncogene family)	-0.0527	2.01	-0.331
5	SIX2 (SIX homeobox 2)	-0.0577	3.01	0.109
6	APOL4 (apolipoprotein L4)	-0.0416	3.83	-0.124
7	SAA1 (serum amyloid A1)	-0.0779	1.81	0.0365
8	ADH5P4 (ADH5 pseudogene 4)	-0.321	2	-0.151
9	FASTKD4 (FASTK mitochondrial RNA regulator 4)	-0.499	4.29	-0.354
10	ZNF639 (zinc finger protein 639)	-0.473	3.49	-0.581
11	TRAM1 (translocation associated membrane protein 1)	-0.404	1.51	-0.564
12	GIN1 (gypsy retrotransposon integrase 1)	-0.866	6.03	-0.64
13	GPATCH4 (G-patch domain containing 4 (gene/pseudogene))	0.00716	2.06	0.38

Laid out differently: 3 of the entries above
gene | mean correlation with KSR1 profile | mean distance from KSR1 profile | KSR1 correlation, replicate 1
SIX2 (SIX homeobox 2) | -0.0577 | 3.01 | 0.109
APOL4 (apolipoprotein L4) | -0.0416 | 3.83 | -0.124
SAA1 (serum amyloid A1) | -0.0779 | 1.81 | 0.0365

The listing continues:
no.	gene	mean correlation with KSR1 profile	mean distance from KSR1 profile	KSR1 correlation, replicate 1
14	NDUFB6 (NADH:ubiquinone oxidoreductase subunit B6)	-0.575	2.57	-0.296
15	LRIG2 (leucine rich repeats and immunoglobulin like domains 2)	0.856	0.956	0.818
16	RAPGEF3 (Rap guanine nucleotide exchange factor 3)	-0.189	3.79	0.0729
17	TCP10L3 (t-complex 10 like 3 (pseudogene))	0.0435	3.59	-0.328
18	NPY1R (neuropeptide Y receptor Y1)	-0.2	4.2	0.186
19	SRGAP3 (SLIT-ROBO Rho GTPase activating protein 3)	-0.273	1.78	-0.247
20	LILRA3 (leukocyte immunoglobulin like receptor A3)	0.251	1.87	0.309
